The list shows a part of the results.
What was measured:
Assay in all cases: log2 fold change, soluble protein after heating vs DMSO (PISA); higher = thermal stabilisation; K562 cells, 10 uM, 30 min; active = over 0.2 and 3.5 SD of the protein, either way, in both replicates (recomputed)
[1] = compound: COC1=CC=C(C=C1)CN2C=CC3=C2C=C(C=C3)C(=O)NO
Procedure, shortened: (§1)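 Thermal stability values are relative to control samples and come from duplicates. They are expressed as log2 fold changes. For measurement, K562 cells (2×10^6 cells/mL) received 10 μM compound for 30 min, and aliquots were heated for 3 min over 48°C-58°C, pooled, and extracted at 4°C in PBS with 0.5% NP-40. Soluble protein, the supernatant after 21,000xg for 90 min, was quantified by TMTpro 16plex LC-MS/MS with equalised channel sums.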

Amino acid sequences for entries named in this document (tags omitted). A change or cut given only in a name is not applied to a line headed by its entry.
UniProt Q9Y6M7: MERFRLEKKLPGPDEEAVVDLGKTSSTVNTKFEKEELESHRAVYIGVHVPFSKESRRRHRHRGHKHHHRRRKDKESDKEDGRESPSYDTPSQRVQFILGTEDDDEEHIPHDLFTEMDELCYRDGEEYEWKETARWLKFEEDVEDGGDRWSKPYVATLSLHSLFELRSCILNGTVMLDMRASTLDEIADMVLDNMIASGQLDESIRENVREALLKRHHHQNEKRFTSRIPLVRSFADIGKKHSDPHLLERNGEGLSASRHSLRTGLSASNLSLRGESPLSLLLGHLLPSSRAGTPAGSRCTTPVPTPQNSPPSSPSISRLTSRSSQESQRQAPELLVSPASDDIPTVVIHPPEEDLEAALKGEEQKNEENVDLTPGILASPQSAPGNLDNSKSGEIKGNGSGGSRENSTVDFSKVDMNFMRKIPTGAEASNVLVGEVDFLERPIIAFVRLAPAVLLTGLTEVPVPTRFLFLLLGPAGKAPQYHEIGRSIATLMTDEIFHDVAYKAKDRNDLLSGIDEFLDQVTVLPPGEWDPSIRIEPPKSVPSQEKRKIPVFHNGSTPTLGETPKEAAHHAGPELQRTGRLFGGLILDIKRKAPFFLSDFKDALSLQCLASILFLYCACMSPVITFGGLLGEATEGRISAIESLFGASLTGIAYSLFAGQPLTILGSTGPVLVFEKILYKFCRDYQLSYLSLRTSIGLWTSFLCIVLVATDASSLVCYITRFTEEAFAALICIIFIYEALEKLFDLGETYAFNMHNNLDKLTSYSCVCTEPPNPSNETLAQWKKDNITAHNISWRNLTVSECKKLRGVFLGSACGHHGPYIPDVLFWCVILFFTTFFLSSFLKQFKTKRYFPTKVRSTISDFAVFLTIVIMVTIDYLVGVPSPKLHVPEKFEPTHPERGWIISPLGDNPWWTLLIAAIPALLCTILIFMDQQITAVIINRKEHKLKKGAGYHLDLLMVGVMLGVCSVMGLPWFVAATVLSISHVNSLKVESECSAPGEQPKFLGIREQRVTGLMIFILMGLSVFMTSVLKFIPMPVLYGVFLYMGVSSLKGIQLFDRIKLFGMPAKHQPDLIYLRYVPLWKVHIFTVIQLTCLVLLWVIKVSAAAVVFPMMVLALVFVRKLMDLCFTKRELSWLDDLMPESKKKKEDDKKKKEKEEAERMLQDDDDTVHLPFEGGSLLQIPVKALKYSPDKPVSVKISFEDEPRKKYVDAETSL
UniProt Q8TAD4: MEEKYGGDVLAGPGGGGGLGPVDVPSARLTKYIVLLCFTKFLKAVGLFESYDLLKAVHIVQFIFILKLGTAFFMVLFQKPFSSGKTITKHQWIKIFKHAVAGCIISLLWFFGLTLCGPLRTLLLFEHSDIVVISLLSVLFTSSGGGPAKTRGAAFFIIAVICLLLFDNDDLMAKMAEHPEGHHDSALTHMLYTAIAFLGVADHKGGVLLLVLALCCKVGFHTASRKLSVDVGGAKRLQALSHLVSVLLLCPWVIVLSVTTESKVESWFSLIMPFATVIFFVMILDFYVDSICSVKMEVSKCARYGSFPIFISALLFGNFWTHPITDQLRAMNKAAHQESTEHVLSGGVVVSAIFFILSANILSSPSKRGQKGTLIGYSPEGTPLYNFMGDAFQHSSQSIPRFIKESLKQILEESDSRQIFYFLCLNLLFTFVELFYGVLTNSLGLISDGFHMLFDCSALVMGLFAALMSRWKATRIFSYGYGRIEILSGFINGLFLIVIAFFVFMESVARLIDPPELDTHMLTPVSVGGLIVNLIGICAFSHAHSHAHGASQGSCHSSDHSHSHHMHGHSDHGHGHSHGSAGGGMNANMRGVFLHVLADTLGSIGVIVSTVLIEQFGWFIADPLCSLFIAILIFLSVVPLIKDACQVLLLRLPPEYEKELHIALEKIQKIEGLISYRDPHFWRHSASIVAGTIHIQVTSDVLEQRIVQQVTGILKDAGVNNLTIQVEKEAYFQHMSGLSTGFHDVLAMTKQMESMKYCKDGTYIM
UniProt Q9BSK2: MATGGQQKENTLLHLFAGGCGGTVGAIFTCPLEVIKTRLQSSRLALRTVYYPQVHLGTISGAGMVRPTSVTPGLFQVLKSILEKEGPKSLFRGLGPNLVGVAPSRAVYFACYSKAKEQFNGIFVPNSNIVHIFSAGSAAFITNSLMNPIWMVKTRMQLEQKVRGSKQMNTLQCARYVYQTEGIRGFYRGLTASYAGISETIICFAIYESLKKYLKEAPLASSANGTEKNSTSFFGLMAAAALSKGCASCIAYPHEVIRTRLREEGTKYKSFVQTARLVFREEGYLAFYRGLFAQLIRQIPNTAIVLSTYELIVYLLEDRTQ
UniProt P49281: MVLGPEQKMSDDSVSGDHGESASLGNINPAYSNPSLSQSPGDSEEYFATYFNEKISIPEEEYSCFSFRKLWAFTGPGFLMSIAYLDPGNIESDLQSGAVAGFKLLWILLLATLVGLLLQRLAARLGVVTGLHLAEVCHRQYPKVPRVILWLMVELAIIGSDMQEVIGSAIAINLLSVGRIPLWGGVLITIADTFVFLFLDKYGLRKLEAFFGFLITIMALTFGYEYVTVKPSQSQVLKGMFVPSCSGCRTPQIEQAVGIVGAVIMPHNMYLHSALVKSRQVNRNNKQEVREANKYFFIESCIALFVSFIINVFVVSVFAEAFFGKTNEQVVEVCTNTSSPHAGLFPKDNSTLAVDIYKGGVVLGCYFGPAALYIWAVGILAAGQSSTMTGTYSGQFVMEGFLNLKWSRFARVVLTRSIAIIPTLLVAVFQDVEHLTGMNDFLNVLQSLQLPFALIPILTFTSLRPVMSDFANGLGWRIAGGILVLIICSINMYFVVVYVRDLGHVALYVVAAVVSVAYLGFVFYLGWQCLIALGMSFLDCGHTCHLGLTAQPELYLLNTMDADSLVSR
UniProt P78382: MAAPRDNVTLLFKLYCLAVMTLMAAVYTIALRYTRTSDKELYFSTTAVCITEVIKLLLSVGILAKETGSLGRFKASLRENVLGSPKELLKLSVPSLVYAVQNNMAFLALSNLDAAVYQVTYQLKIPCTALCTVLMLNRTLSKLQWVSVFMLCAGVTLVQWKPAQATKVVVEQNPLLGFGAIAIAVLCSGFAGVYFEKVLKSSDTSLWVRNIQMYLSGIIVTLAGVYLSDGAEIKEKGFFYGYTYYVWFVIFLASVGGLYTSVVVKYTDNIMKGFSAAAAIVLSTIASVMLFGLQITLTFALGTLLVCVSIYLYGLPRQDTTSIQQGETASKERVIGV
UniProt Q99808: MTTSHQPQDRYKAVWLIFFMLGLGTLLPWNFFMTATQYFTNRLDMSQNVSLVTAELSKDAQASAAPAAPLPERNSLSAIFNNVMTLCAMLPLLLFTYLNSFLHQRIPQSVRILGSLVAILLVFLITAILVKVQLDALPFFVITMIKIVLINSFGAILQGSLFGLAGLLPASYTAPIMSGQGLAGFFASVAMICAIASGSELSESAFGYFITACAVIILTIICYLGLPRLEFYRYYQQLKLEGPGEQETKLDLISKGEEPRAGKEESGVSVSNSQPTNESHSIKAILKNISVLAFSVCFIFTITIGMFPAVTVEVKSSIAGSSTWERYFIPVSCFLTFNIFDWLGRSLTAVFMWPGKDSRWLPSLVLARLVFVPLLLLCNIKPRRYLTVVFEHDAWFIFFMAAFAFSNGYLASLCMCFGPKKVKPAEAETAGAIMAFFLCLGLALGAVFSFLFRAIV
UniProt Q9BZJ4: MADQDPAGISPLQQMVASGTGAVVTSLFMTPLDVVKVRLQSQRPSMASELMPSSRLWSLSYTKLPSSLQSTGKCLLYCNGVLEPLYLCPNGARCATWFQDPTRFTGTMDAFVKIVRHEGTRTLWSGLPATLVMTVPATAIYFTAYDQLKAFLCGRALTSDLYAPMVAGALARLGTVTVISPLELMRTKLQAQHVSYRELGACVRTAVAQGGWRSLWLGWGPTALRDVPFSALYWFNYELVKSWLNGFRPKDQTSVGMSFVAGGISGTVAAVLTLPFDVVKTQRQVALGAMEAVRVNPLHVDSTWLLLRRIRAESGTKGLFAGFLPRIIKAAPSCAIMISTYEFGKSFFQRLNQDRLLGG
UniProt Q96QD8: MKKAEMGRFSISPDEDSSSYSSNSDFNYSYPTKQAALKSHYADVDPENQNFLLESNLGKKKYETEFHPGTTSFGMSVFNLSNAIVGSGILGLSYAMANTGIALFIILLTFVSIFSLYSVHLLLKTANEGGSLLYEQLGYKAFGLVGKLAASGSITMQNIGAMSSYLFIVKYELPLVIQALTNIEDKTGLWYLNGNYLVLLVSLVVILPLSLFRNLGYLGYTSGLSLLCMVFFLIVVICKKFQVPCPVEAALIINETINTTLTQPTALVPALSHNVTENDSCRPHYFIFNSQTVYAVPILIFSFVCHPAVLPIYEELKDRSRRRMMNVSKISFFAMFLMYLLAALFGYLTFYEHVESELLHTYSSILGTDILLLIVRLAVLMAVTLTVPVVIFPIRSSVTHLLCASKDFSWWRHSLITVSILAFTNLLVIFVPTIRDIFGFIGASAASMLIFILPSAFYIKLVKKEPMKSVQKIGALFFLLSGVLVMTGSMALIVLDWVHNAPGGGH
UniProt Q9ULF5: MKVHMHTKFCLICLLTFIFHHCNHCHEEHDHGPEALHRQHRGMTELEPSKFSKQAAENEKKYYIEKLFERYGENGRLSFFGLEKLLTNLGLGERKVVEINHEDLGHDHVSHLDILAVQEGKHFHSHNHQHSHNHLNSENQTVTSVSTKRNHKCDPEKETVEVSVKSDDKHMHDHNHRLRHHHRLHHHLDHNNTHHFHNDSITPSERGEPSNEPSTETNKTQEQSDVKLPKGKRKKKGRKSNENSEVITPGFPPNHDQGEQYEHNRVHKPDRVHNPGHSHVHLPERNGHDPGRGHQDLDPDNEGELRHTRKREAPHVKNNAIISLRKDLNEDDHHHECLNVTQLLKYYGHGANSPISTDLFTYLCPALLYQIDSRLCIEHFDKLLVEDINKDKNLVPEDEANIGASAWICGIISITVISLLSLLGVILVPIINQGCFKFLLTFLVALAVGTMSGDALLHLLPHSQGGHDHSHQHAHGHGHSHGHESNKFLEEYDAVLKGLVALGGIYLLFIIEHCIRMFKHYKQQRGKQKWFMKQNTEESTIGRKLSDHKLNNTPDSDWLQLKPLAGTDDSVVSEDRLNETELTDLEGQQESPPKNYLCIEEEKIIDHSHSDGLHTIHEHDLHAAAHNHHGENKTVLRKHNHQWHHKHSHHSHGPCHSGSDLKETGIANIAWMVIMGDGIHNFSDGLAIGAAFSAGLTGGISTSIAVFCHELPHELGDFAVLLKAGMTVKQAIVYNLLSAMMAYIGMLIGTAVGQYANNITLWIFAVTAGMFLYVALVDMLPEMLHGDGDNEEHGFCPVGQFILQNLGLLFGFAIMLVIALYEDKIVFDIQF
UniProt Q9Y619: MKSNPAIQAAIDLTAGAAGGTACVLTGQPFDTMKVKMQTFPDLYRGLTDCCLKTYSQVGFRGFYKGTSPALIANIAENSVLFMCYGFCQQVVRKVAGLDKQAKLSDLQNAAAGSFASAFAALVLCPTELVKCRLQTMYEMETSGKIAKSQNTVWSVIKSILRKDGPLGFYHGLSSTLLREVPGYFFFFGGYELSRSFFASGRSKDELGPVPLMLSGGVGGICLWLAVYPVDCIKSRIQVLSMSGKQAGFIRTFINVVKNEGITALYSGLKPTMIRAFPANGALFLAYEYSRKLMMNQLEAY
UniProt P30825: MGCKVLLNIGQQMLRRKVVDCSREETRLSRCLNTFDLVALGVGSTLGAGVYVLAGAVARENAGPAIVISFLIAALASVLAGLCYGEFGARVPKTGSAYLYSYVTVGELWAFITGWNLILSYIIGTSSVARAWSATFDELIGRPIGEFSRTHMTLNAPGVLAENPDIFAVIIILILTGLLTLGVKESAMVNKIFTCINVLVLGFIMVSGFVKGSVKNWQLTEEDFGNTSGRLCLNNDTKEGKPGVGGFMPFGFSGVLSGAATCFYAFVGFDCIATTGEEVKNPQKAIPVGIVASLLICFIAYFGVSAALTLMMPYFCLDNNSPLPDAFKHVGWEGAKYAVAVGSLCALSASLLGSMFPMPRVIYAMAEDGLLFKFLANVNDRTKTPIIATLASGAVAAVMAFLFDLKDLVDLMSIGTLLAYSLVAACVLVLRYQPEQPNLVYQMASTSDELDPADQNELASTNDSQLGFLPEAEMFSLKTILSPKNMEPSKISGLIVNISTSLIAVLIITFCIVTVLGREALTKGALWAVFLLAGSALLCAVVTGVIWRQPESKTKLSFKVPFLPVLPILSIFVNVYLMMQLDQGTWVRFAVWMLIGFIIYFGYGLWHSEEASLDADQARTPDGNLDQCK
UniProt O43772: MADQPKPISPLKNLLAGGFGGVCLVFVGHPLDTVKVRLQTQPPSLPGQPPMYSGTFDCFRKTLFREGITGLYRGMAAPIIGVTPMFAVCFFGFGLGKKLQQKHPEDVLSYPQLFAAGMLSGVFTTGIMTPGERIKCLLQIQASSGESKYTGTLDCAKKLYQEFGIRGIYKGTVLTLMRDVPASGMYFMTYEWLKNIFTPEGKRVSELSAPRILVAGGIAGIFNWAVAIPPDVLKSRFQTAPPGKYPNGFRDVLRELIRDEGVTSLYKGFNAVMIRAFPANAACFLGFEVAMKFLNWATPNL

filanesib = compound: CON(C)C(=O)N1N=C(c2cc(F)ccc2F)S[C@@]1(CCCN)c1ccccc1 [filanesib]
Procedure, shortened: as §1

zotarolimus = compound: CO[C@H]1C[C@@H]2CC[C@@H](C)[C@@](O)(O2)C(=O)C(=O)N2CCCC[C@H]2C(=O)O[C@H]([C@H](C)C[C@@H]2CC[C@H](n3cnnn3)[C@H](OC)C2)CC(=O)[C@H](C)/C=C(\C)[C@@H](O)[C@@H](OC)C(=O)[C@H](C)C[C@H](C)/C=C/C=C/C=C/1C [zotarolimus]
Procedure, shortened: as §1

idasanutlin = compound: COc1cc(C(=O)O)ccc1NC(=O)[C@@H]1N[C@@H](CC(C)(C)C)[C@](C#N)(c2ccc(Cl)cc2F)[C@H]1c1cccc(Cl)c1F [idasanutlin]
Procedure, shortened: as §1

alisertib = compound: COc1cc(Nc2ncc3c(n2)-c2ccc(Cl)cc2C(c2c(F)cccc2OC)=NC3)ccc1C(=O)O [alisertib]
Procedure, shortened: as §1

[2] = compound: COc1cc2nc(-c3cc(F)ccc3O)nc(N[C@@H]3CNC[C@H]3C(C)(C)O)c2cc1OC
Procedure, shortened: as §1

gefitinib = compound: COc1cc2ncnc(Nc3ccc(F)c(Cl)c3)c2cc1OCCCN1CCOCC1 [gefitinib]
Procedure, shortened: as §1

[3] = compound: COc1cccc2cc(-c3nc([C@H]4CC[C@H](C(=O)O)CC4)n4ncnc(N)c34)[nH]c12
Procedure, shortened: as §1

lapatinib = compound: CS(=O)(=O)CCNCc1ccc(-c2ccc3ncnc(Nc4ccc(OCc5cccc(F)c5)c(Cl)c4)c3c2)o1 [lapatinib]
Procedure, shortened: as §1

pictilisib = compound: CS(=O)(=O)N1CCN(Cc2cc3nc(-c4cccc5[nH]ncc45)nc(N4CCOCC4)c3s2)CC1 [pictilisib]
Procedure, shortened: as §1

Measured: log2 fold change

SLC6A6 (UniProt P31641)
inactive: [1] -0.1 | filanesib -0.013 | zotarolimus -0.017 | idasanutlin -0.066 | alisertib -0.031 | [2] -0.066 | gefitinib -0.044 | [3] 0.041 | lapatinib -0.012 | pictilisib 0.072

SLC12A2 (UniProt P55011)
inactive: [1] -0.01 | filanesib 0.013 | zotarolimus 0.018 | idasanutlin -0.026 | alisertib -0.046 | [2] 0.068 | gefitinib 0.017 | [3] 0.047 | lapatinib -0.001 | pictilisib -0.013

SLC38A9 (UniProt Q8NBW4)
inactive: [1] 0.033 | filanesib 0.064 | zotarolimus -0.012 | idasanutlin -0.004 | alisertib 0 | [2] 0.053 | gefitinib -0.012 | [3] 0.121 | lapatinib -0.065 | pictilisib -0.027

SLC25A4 (UniProt P12235)
inactive: [1] -0.012 | filanesib -0.024 | zotarolimus -0.018 | idasanutlin 0.003 | alisertib 0.014 | [2] 0.039 | gefitinib 0.006 | [3] -0.012 | lapatinib -0.026 | pictilisib 0.115

SLC4A7 isoform 7 (UniProt Q9Y6M7)
inactive: [1] -0.007 | filanesib -0.026 | zotarolimus -0.101 | idasanutlin 0.144 | alisertib -0.044 | [2] -0.089 | gefitinib 0.152 | [3] 0.058 | lapatinib -0.018

SLC38A7 (UniProt Q9NVC3)
inactive: [1] -0.042 | filanesib -0.098 | zotarolimus 0.095 | idasanutlin -0.077 | alisertib -0.136 | [2] 0.01 | gefitinib 0.035 | [3] 0.069 | lapatinib -0.057 | pictilisib 0.022

SLC30A5 (UniProt Q8TAD4)
inactive: [1] -0.001 | filanesib -0.01 | zotarolimus -0.051 | idasanutlin 0.007 | alisertib 0.097 | [2] 0.076 | gefitinib 0.064 | [3] 0.041 | lapatinib 0.03 | pictilisib -0.088

SLC25A33 (UniProt Q9BSK2)
inactive: [1] 0.019 | filanesib -0.041 | zotarolimus -0.027 | idasanutlin -0.082 | alisertib -0.086 | [2] -0.048 | gefitinib -0.049 | [3] 0.134 | lapatinib 0.036 | pictilisib -0.03

SLC25A24 (UniProt Q6NUK1)
inactive: [1] -0.019 | filanesib -0.053 | zotarolimus -0.025 | idasanutlin -0.012 | alisertib -0.04 | [2] 0.019 | gefitinib 0.013 | [3] 0.041 | lapatinib -0.023 | pictilisib -0.031

SLC25A13 isoform 2 (UniProt Q9UJS0)
inactive: [1] -0.038 | filanesib -0.049 | zotarolimus -0.013 | idasanutlin -0.029 | alisertib -0.036 | [2] 0.013 | gefitinib 0.001 | [3] 0.057 | lapatinib -0.016 | pictilisib -0.027

SLC11A2 isoform 3 (UniProt P49281)
inactive: [1] -0.052 | filanesib -0.217 | zotarolimus -0.139 | idasanutlin 0.061 | alisertib -0.09 | [2] 0.013 | gefitinib 0.028 | [3] 0.159 | lapatinib 0.006

SLC27A1 (UniProt Q6PCB7)
inactive: [1] -0.263 | filanesib 0.118 | zotarolimus 0.064 | idasanutlin -0.038 | alisertib 0.004 | [2] 0.069 | gefitinib 0.016 | [3] -0.031 | lapatinib 0.014

SLC37A4 isoform 2 (UniProt O43826)
inactive: [1] -0.081 | filanesib -0.028 | zotarolimus -0.012 | idasanutlin -0.028 | alisertib -0.04 | [2] -0.047 | gefitinib 0.031 | [3] 0.064 | lapatinib 0.068 | pictilisib -0.033

2 entries drawn at random from those above, as already listed:
SLC11A2 isoform 3 (UniProt P49281)
inactive: [1] -0.052 | filanesib -0.217 | zotarolimus -0.139 | idasanutlin 0.061 | alisertib -0.09 | [2] 0.013 | gefitinib 0.028 | [3] 0.159 | lapatinib 0.006

SLC37A4 isoform 2 (UniProt O43826)
inactive: [1] -0.081 | filanesib -0.028 | zotarolimus -0.012 | idasanutlin -0.028 | alisertib -0.04 | [2] -0.047 | gefitinib 0.031 | [3] 0.064 | lapatinib 0.068 | pictilisib -0.033

Remaining list, next part:

SLC25A36 (UniProt Q96CQ1)
inactive: [1] 0.006 | filanesib -0.069 | zotarolimus 0.013 | idasanutlin -0.064 | alisertib -0.03 | [2] 0.083 | gefitinib -0.014 | [3] 0.001 | lapatinib 0.107 | pictilisib 0.052

SLC35A1 (UniProt P78382)
inactive: [1] 0.048 | filanesib -0.021 | zotarolimus -0.138 | idasanutlin -0.051 | alisertib -0.063 | [2] -0.097 | gefitinib 0.06 | [3] 0.06 | lapatinib -0.028

SLC35A2 isoform 4 (UniProt P78381)
inactive: [1] -0.012 | filanesib -0.017 | zotarolimus 0.005 | idasanutlin -0.227 | alisertib 0.061 | [2] -0.019 | gefitinib 0.014 | [3] 0.002 | lapatinib -0.048 | pictilisib 0.08

SLC29A1 isoform 2 (UniProt Q99808)
inactive: [1] 0.128 | filanesib 0.024 | zotarolimus 0.001 | idasanutlin -0.009 | alisertib -0.054 | [2] 0.092 | gefitinib 0.065 | [3] 0.118 | lapatinib 0.045 | pictilisib 0.092

SLC38A10 (UniProt Q9HBR0)
inactive: [1] 0.088 | filanesib -0.09 | zotarolimus -0.009 | idasanutlin -0.004 | alisertib -0.001 | [2] -0.077 | gefitinib 0.058 | [3] 0.05 | lapatinib 0.119 | pictilisib 0.005

SLC5A6 (UniProt Q9Y289)
inactive: [1] -0.007 | filanesib 0.085 | zotarolimus 0.061 | idasanutlin -0.013 | alisertib 0.008 | [2] -0.004 | gefitinib 0.008 | [3] 0.028 | lapatinib -0.044 | pictilisib 0.087

SLC39A14 (UniProt Q15043)
inactive: [1] -0.004 | filanesib 0.001 | zotarolimus -0.019 | idasanutlin -0.012 | alisertib -0.08 | [2] -0.021 | gefitinib 0.024 | [3] 0.061 | lapatinib -0.035 | pictilisib 0.093

SLC38A5 (UniProt Q8WUX1)
inactive: [1] -0.065 | filanesib -0.004 | zotarolimus -0.029 | idasanutlin 0.04 | alisertib -0.01 | [2] -0.03 | gefitinib -0.022 | [3] 0.122 | lapatinib -0.034 | pictilisib 0.078

SLC25A39 (UniProt Q9BZJ4)
inactive: [1] -0.069 | filanesib -0.255 | zotarolimus 0.073 | idasanutlin -0.115 | alisertib 0.123 | [2] -0.49 | gefitinib -0.344 | [3] 0.224 | lapatinib -0.044 | pictilisib -0.072

SLC38A2 (UniProt Q96QD8)
inactive: [1] -0.041 | filanesib -0.205 | zotarolimus 0.048 | idasanutlin 0.011 | alisertib -0.019 | [2] -0.122 | gefitinib -0.099 | [3] 0.097 | lapatinib -0.055

SLC39A10 (UniProt Q9ULF5)
inactive: [1] -0.102 | filanesib 0.094 | zotarolimus -0.012 | idasanutlin 0.03 | alisertib -0.064 | [2] -0.021 | gefitinib 0.107 | [3] 0.015 | lapatinib -0.015 | pictilisib 0.02

SLC25A15 (UniProt Q9Y619)
inactive: [1] -0.075 | filanesib -0.041 | zotarolimus -0.009 | idasanutlin 0.001 | alisertib -0.013 | [2] -0.026 | gefitinib 0.009 | [3] 0.045 | lapatinib 0.063 | pictilisib 0.004

SLC25A46 (UniProt Q96AG3)
inactive: [1] -0.037 | filanesib 0.046 | zotarolimus -0.021 | idasanutlin -0.033 | alisertib 0.068 | [2] 0.131 | gefitinib 0.055 | [3] 0.013 | lapatinib 0.042 | pictilisib -0.064

SLC7A1 (UniProt P30825)
inactive: [1] -0.056 | filanesib 0.002 | zotarolimus -0.049 | idasanutlin -0.005 | alisertib -0.041 | [2] -0.009 | gefitinib 0.011 | [3] 0.098 | lapatinib -0.002 | pictilisib 0.047

SLC25A20 (UniProt O43772)
inactive: [1] 0.021 | filanesib -0.025 | zotarolimus 0.015 | idasanutlin -0.021 | alisertib -0.043 | [2] -0.098 | gefitinib -0.007 | [3] 0.036 | lapatinib 0.059 | pictilisib -0.01

SLC19A1 (UniProt P41440)
inactive: [1] 0.047 | filanesib -0.164 | zotarolimus -0.106 | idasanutlin 0.023 | alisertib -0.034 | [2] 0.003 | gefitinib 0 | [3] 0.086 | lapatinib -0.066 | pictilisib -0.026

SLC7A11 (UniProt Q9UPY5)
inactive: [1] -0.008 | filanesib 0.083 | zotarolimus -0.015 | idasanutlin -0.003 | alisertib -0.056 | [2] 0.039 | gefitinib -0.061 | [3] 0.006 | lapatinib -0.067 | pictilisib 0.073
